Results are given in words; binding and its absence hold for the method and conditions named. Binding seen in cells or lysates may run through a third protein. Binding calls can cover weak binding; strength is not graded here. For part of these data: Sequences can lack the tags named with a protein.
T1: MISC-1::GFP (C. elegans) (UniProt P90992)
T1 sequence: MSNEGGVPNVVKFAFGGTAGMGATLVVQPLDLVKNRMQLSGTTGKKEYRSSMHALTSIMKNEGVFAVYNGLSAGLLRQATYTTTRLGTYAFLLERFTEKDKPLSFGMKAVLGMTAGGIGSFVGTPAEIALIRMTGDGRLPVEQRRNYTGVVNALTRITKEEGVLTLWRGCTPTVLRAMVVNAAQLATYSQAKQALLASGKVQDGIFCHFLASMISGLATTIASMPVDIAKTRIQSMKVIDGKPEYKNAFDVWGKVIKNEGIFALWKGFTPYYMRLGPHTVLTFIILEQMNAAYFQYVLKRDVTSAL

T2: MISC-1 (Mitochondrial Solute Carrier) (C. elegans (endogenous in N2)) (UniProt P90992)
T2 sequence: T1 sequence

B1: 2-oxoglutarate carrier (OGC) (protein, UniProt Q02978 1-314)
chain: MAATASAGAGGIDGKPRTSPKSVKFLFGGLAGMGATVFVQPLDLVKNRMQLSGEGAKTREYKTSFHALTSILKAEGLRGIYTGLSAGLLRQATYTTTRLGIYTVLFERLTGADGTPPGFLLKAVIGMTAGATGAFVGTPAEVALIRMTADGRLPADQRRGYKNVFNALIRITREEGVLTLWRGCIPTMARAVVVNAAQLASYSQSKQFLLDSGYFSDNILCHFCASMISGLVTTAASMPVDIAKTRIQNMRMIDGKPEYKNGLDVLFKVVRYEGFFSLWKGFTPYYARLGPHTVLTFIFLEQMNKAYKRLFLSG

Key:
MISC-1::GFP (C. elegans) = biological target: T1, MISC-1::GFP (C. elegans); test: co-IP; lysates of mixed stage C. elegans (wild type N2 and the MISC-1::GFP transgenic line) in co-immunoprecipitation buffer, several combinations of antibodies, protocol as for mammalian cells, Western blot
[1] = biological target: T2, MISC-1 (Mitochondrial Solute Carrier) (C. elegans (endogenous in N2)); test: as above
[2] = biological target: Adenine Nucleotide Translocase (ANT) (human (endogenous in HEK293)); test: co-IP; antibody against ANT added to sonicated HEK293 lysate (25 mM TRIS pH 7.4, 100 mM NaCl, 1 mM EDTA, 0.5% NP-40, 1% sodium deoxycholate), overnight at 4°C, protein G-sepharose, Western blot

Molecule	binding (MISC-1::GFP (C. elegans))	binding [1]	binding [2]
ANT (C. elegans)	binds	binds	
B1			binds

From PMC3063170
